Measured values from patent US9249087B2, “HDAC inhibitors and therapeutic methods using the same” (THE BOARD OF TRUSTEES OF THE UNIVERSITY OF ILLINOIS, priority 2011, dated 2016).
For at least one compound, name, drawing or mass did not settle the structure.

Sequences of proteins named here, by UniProt entry; tags and fusion partners are left off. A change or cut given only in a name is not applied to a line headed by its entry.
UniProt Q9UBN7: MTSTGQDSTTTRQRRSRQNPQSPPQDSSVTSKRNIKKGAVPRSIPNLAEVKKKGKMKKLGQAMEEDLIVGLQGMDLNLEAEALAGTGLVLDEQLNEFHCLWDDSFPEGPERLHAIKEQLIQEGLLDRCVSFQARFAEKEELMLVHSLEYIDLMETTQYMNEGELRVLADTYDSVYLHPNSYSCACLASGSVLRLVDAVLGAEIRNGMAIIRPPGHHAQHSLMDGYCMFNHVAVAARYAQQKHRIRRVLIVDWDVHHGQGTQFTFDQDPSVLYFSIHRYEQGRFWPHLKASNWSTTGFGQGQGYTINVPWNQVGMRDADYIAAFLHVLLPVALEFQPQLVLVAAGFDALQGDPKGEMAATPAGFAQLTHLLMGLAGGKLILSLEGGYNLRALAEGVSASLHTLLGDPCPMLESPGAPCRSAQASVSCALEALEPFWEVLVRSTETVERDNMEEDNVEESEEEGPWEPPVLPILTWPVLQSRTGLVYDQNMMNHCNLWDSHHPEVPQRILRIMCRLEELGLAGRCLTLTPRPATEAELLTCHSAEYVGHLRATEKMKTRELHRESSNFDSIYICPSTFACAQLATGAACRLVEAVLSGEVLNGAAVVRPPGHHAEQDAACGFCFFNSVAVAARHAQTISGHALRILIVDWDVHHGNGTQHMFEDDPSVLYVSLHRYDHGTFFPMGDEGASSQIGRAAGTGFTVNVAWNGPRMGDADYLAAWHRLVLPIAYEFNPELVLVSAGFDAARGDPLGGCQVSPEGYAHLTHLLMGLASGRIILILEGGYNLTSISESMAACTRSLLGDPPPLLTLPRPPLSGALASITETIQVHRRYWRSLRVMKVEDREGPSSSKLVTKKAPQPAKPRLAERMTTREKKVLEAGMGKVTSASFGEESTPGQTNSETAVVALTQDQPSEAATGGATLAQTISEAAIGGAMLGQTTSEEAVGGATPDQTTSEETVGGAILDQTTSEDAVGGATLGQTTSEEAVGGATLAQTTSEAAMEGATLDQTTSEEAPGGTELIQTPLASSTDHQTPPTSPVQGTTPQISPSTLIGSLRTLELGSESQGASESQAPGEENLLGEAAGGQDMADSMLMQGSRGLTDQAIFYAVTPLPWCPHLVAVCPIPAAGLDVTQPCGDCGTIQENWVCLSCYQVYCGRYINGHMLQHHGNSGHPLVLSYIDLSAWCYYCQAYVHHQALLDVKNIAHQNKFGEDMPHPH

Target: Human HDAC6 (Homo sapiens (Human), UniProt Q9UBN7)
Assay: HDAC6 fluorogenic peptide deacetylation inhibition assay
Assay type: biochemical
Details: binding efficiency index, BEI=pIC50/MW, MW in kDa

CN(C)CCc1cn(Cc2ccc(C(=O)NO)cc2)c2ccccc12
BEI: 23.4
